{"source": "patent EP3736570A1", "about": "“METHOD FOR THE DIAGNOSIS, SUB-CLASSIFICATION AND PROGNOSIS OF ACUTE KIDNEY INJURY BY DETECTING CCT7” (Fundación Instituto de Estudios de Ciencias de la Salud de …, priority 2019, dated 2020)", "test_system": "MCT cells", "assay": "Western blot / 2D proteomic analysis of culture medium and cell extracts", "conditions": "cisplatin 0-30 µM", "data": [{"smiles": "N.N.[Cl][Pt][Cl]", "note": "[cisplatin]", "values": [{"measurement": "TCP1-eta inside the cells", "setting": "MCT cell extracts", "result": "did not accumulate inside the cells"}, {"measurement": "t-gelsolin in the culture medium", "setting": "MCT cells, 9 and 18 h", "result": "not detected in the culture medium"}]}]}
